Experimental data published in patent US20230391772A1, “METHODS AND COMPOSITIONS FOR TARGETED PROTEIN DEGRADATION” (Ranok Therapeutics (Hangzhou) Co. Ltd., priority 2020, published 2023).
The match of structure and compound is tentative.

Key:
HSP90a protein [1] = target: T1, HSP90a protein (Homo sapiens, UniProt P07900); test: HSP90α-binding fluorescent polarization (FP) assay, BODIPY-labeled RNK04010 probe; conditions: read-out: HSP90a binding (BODIPY); FP competition with RNK04010 (BODIPY-labeled), 5 nM, 300 min at 25° C.
Experimental: (§1) HSP90α-Binding Fluorescent Polarization (FP) Assay
(§2) Binding of test compounds to HSP90a protein was measured by fluorescent polarization (FP) using the HSP90a (N-terminal) Assay Kit (BPS Bioscience, #50298), following the manufacturer's instructions, except as noted. Fluorescently labeled HSP90-binding compounds, either the provided FITC-geldanamycin (5 nM final concentration) or RNK04010, a triazolone-based HSP90 binding small molecule labeled with BODIPY through a piperizine-phenyl linker (5 nM final concentration) were employed. A 2.5-fold serial dilution of each test compound ranging from 20 μM to 5.2 nM was assayed for binding to HSP90a. After the final step of adding HSP90a protein to each assay well, plates were mixed by brief shaking, incubated at 25° C. for 120 min for FITC-geldanamycin or 300 min for RNK04010, and fluorescence was measured using a PerkinElmer EnVision Plate Reader. Background-subtracted mP values were calculated from raw data and a four-parameter “log[inhibitor] vs. response” curve was fitted and IC50 values (the concentration at which 50% of the maximal inhibition occurs) calculated using GraphPad Prism 7 software.

[2] = test system: NCI-H358 human non-small cell lung cancer; test: NCI-H358 CCK-8 proliferation assay; conditions: read-out: NCI-H358 CCK-8; NCI-H358 cells, 72 hr
Experimental: The following cancer cell lines were employed: BT-474 human breast carcinoma (ATCC, #HTB-20); MIA PaCa-2 human pancreatic carcinoma [2 copies KRAS(G12C)](ATCC, #CRL-1420); NCI-H23 human non-small cell lung cancer [1 copy KRAS(G12C)](ATCC, #CRL-5800); NCI-H358 human non-small cell lung cancer [1 copy KRAS(G12C)](ATCC, #CRL-5807); LU65A human lung carcinoma (Pharmaron, Beijing, China). Cell lines were cultured essentially according to ATCC and Pharmaron recommendations.
Cancer Cell Line Proliferation (CCK-8) Assays
Cells were plated in 96-well tissue culture plates at 4,000 cells/well and incubated at 37° C./5% CO2 for 24 hr. 3-fold serial dilutions of each test compound were prepared ranging from 20 μM to 1.02 nM. Cells were then treated with test compounds at various concentrations with a final concentration of 0.5% DMSO/well, and then incubated at 37° C./5% CO2 for 72 hr. 10 l the cell proliferation detection reagent CCK-8 (Dojindo Molecular Technologies, #CK04) was added to each well and incubated at 37° C./5% CO2 for 3-4 hr and the absorbance at 450 nm measured using an Perkin Elmer EnVision Plate Reader. Compound inhibition of was determined by the following equation and EC50 values (the concentration at which 50% of the maximal inhibition occurs) calculated using GraphPad Prism 7 software:
% Inhibition=100−(D−B)/(S−B)*100%. • S: Absorbance of cells treated with DMSO • D: Absorbance of compound-treated cells • B: Absorbance of medium with DMSO without cells

HSP90a protein [3] = target: T1, HSP90a protein; test: HSP90α-binding fluorescent polarization (FP) assay, FITC-geldanamycin probe; conditions: read-out: HSP90a binding (FITC); FP competition with FITC-geldanamycin, 5 nM, 120 min at 25° C.
Experimental: as §1, §2

IC50 (HSP90a protein [3]) [nM] | Compound | IC50 (HSP90a protein [1]) [nM] | EC50 [2] [nM]
– | C=C(F)C(=O)N1CCN(c2nc(OC[C@@H]3CCN(C(=O)COc4ccc(Nc5cc(-n6nc(C(F)(F)F)c7c6CC(C)(C)CC7=O)ccc5C(N)=O)cc4)C3)nc3c2CCN(c2cccc4cccc(Cl)c24)C3)C[C@@H]1CC#N | > 1000 | > 1000
< 100 | CCC(=O)N1CCN(c2nc(OCCC(=O)N3CCC(CN4CCN(Cc5ccc(-n6c(O)nnc6-c6cc(C(C)C)c(O)cc6O)cc5)CC4)CC3)nc3c2CCN(c2cc(O)cc4ccccc24)C3)CC1 | – | 100 to 1000
– | CC(C)c1cc(-c2nnc(O)n2-c2ccc(CN3CCN(CC4CCN(c5nc6c(c(N7CCN(C(=O)C(F)(F)F)[C@@H](CC#N)C7)n5)CCN(c5cccc7cccc(Cl)c57)C6)CC4)CC3)cc2)c(O)cc1O | 100 to 1000 | > 1000
